Experimental data taken from PubChem BioAssay AID504467 (National Center for Advancing Translational Sciences (NCATS), 2011).
In all, about 330,000 compounds went through this assay and about 7,700 (2.3%) were called active. Inconclusive results, whose numbers are uncertain, are shown with a selection of clear calls. Calls follow the shape of the dose curve; as a rule, active = well fitted inhibition curve with a large enough effect; inconclusive = small, poorly fitted or top-dose-only effect, or effect the other way; inactive = flat fitted curve, though single readings scatter. Potencies beside an inconclusive call are fits to weak or partial responses and may not hold up.

experiment: qHTS screen for small molecules that inhibit ELG1-dependent DNA repair in human embryonic kidney (HEK293T) cells expressing luciferase-tagged ELG1; settings: HEK293T ELG1-luciferase reporter, luminescence, 16 h, DNA damage induced by 5-fluorouridine; activity change, negative = inhibition: at 46.1 µM (top of the series); also: nearly all actives have a fitted effect of over 55% in size
Method in brief: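 HEK293T cells expressing luciferase-tagged ELG1 (2,000/well) received 5-Fluorouridine plus compound or DMSO for 16 hr at 37 °C. Luciferase was read by ONE-Glo luminescence after 30 min at room temperature.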
% is scaled to controls: 0 for no effect and ±100 for the full control effect; potency is read from the fitted curve at half-maximal effect.

Compound | Potency | activity change, negative = inhibition
CC(C)[C@H](NC(=O)OCc1ccccc1)C(=O)OCC(=O)c1ccccc1 | inconclusive: 10.3 µM [activator, partial curve, poor fit] | 
COc1cc(C)ccc1OCc1cc(C(=O)N2C[C@H]3CC[C@H]2C3)no1 |  | inactive: 12.7%
CCCOC(=O)Nc1nc2ccccc2o1 | inconclusive: 6.51 µM [activator, partial curve] | 
CCOC(=O)N1CCN(C(=O)CSc2nc3c(cnn3-c3ccccc3)c(=O)[nH]2)CC1 | inconclusive: 16.4 µM [inhibitor, single point] | 
O=C(NNC(=O)c1ccc(Br)s1)c1cccc(Cl)c1 | inconclusive: 23.1 µM [activator, partial curve, poor fit] | 
O=C(OCC#CCSc1nnc(-c2ccc(Br)cc2)o1)c1ccco1 | inconclusive: 18.4 µM [activator, single point] | 
O=C1CC(O)(c2ccccc2)C(c2ccccc2)=C1c1ccccc1 (stereo not drawn) | inconclusive: 25.9 µM [inhibitor, partial curve, poor fit] | 
Cc1ccc(OC(C)C(=O)N/N=C/c2ccccn2)cc1 (stereo not drawn) |  | inactive: -14.9%
Cc1ccc(-c2nc(CS(=O)(=O)CC(=O)NCCN3CCCC3)c(C)o2)cc1 |  | inactive: 6.54%
COc1cc(/C=N/NC(=O)CCn2cnc(-c3ccccc3)c2-c2ccccc2)ccc1O | inconclusive: 32.6 µM [inhibitor, single point] | 
Cc1nn(Cc2ccc(Cl)cc2Cl)c(C)c1NC(=O)NC12CC3CC(CC(C3)C1)C2 | inconclusive: 29.1 µM [inhibitor, partial curve, poor fit] | 
COc1ccc(CNn2c(-c3cccc(C)c3)nc3ccccc3c2=O)cc1OC | active: 14.6 µM | 
Cc1[nH]c2ccccc2c1/C=C/c1nc2ccccc2c(=O)n1-c1ccc([N+](=O)[O-])cc1 | inconclusive: 4.11 µM [inhibitor, single point] | 
Cc1ccc(/C=C/C(=O)N2CCN(Cc3ccccc3)CC2)o1 | inconclusive: 14.6 µM [activator, partial curve, poor fit] | 
Cc1cccc(C(=O)NCC(=O)N2CCN(S(=O)(=O)c3cc(C)ccc3C)CC2)c1 | inconclusive: 25.9 µM [inhibitor, single point] | 
CC(C)c1ccc(Nc2nc(NCc3ccco3)nc(N3CCOCC3)n2)cc1 | inconclusive: 14.6 µM [inhibitor, single point] | 
CCc1ccccc1N(CC(=O)NC(C)c1ccccc1)S(C)(=O)=O (stereo not drawn) |  | inactive: 2.61%
CN1/C(=C/C(=O)C2CCC2)Sc2ccccc21 | inconclusive: 16.4 µM [activator, partial curve] | 
COc1ccccc1C(=O)NC(=Nc1nc2ccccc2o1)NC(=O)c1ccccc1OC | inconclusive: 5.8 µM [inhibitor, partial curve] | 
COc1ccc2c(c1)c1nc3n(c(=O)c1n2CC(=O)Nc1ccccc1)CCCS3 | inconclusive: 29.1 µM [activator, single point] | 
O=C(CSc1nnc(-c2ccco2)n1CC1CCCO1)c1ccc(F)cc1 (stereo not drawn) |  | inactive: 0.0656%
COc1ccc(-c2nnc3ccc(SCC(=O)Nc4nc5ccc(C)cc5s4)nn23)cc1OC | inconclusive: 0.411 µM [inhibitor, full curve] | 
CC(C)Cn1c(N)c(C(=O)COC(=O)/C=C/c2ccccc2)c(=O)n(C)c1=O | inconclusive: 4.61 µM [inhibitor, single point] | 

For convenience, part of the list above:
Compound | Potency | activity change, negative = inhibition
O=C(NNC(=O)c1ccc(Br)s1)c1cccc(Cl)c1 | inconclusive: 23.1 µM [activator, partial curve, poor fit] | 
O=C(OCC#CCSc1nnc(-c2ccc(Br)cc2)o1)c1ccco1 | inconclusive: 18.4 µM [activator, single point] | 

Later entries.

Compound | Potency | activity change, negative = inhibition
COC(=O)c1[nH]c2ccc(F)cc2c1NS(=O)(=O)c1ccc(OC)cc1 | inconclusive: 2.31 µM [inhibitor, partial curve] | 
CC(C#N)Sc1ccc(S(=O)(=O)N(C)C2CCCCC2)cn1 (stereo not drawn) |  | inactive: 15.2%
Cn1ncc2c(NCc3cccc(C(F)(F)F)c3)c(C(=O)O)cnc21 |  | inactive: 1.31%
CN(NC(=O)c1ccc(Cl)cc1)c1nc(-c2ccccc2)nnc1C(F)(F)F | inconclusive: 32.6 µM [inhibitor, partial curve, poor fit] | 
O=C(CSc1nnc(Cc2ccccc2)n1Cc1ccco1)NC12CC3CC(CC(C3)C1)C2 | inconclusive: 29.1 µM [inhibitor, single point] | 
O=C(NCCC1=CCCCC1)C1CCCN(S(=O)(=O)c2ccccc2)C1 (stereo not drawn) | inconclusive: 16.4 µM [inhibitor, single point] | 
Cc1ccc(C(=O)N/N=C/c2cc(Br)ccc2O)cn1 | inconclusive: 1.26 µM [activator, single point] | 
CCOc1ccccc1N(CC(=O)NC(C)(C)C)C(=O)Cn1nnc(-c2ccc(C)o2)n1 | inconclusive: 29.1 µM [inhibitor, single point] | 
Cc1ccc(NS(=O)(=O)c2cccc(C(=O)N/N=C/c3ccc4c(c3)OCCO4)c2)c(C)c1 | inconclusive: 29.1 µM [inhibitor, single point] | 
Cc1ccc(NC(=O)C2CCN(c3cnccn3)CC2)cc1 |  | inactive: -10.1%
N#Cc1ccc(S(=O)(=O)N2CCN(C(=O)C3CC(=O)N(c4ccc5c(c4)OCCO5)C3)CC2)cc1 (stereo not drawn) |  | inactive: 7.95%
COc1ccccc1CNC(=O)COn1nnc2ccc(S(=O)(=O)N3CCOCC3)cc21 |  | inactive: -1.32%
CCCOc1ccc(C(CC(=O)O)NC(=O)c2sc3ccccc3c2Cl)cc1 (stereo not drawn) | inconclusive: 29.1 µM [inhibitor, partial curve, poor fit] | 
CCC(CC)COC(=O)C1=C(C)NC(=O)NC1c1ccc(N(C)C)cc1 (stereo not drawn) | inconclusive: 20.6 µM [inhibitor, single point] | 
COc1ccc(-c2ccc([C@H]3[C@@H]4C=CCC[C@@]4(C)C(=O)N3Cc3ccccc3)c(F)c2)cc1OC | inconclusive: 29.1 µM [inhibitor, single point] | 
COc1cc(C(=O)N(C)CC2CCN(CCc3cccc(C(F)(F)F)c3)CC2)ccc1C |  | inactive: -23.5%
COc1ccc(NC(=O)C(C)Sc2ccccc2)cc1 (stereo not drawn) | inconclusive: 18.4 µM [activator, single point] | 
CC1CCc2sc(-c3n[nH]c(=S)o3)cc2C1 (stereo not drawn) | inconclusive: 16.4 µM [activator, partial curve] | 
Cn1nnc(NC(=O)c2ccc3ccccc3c2)n1 | inconclusive: 20.6 µM [activator, single point] | 
O=C(Nc1cccc(S(=O)(=O)NC2=NCCC2)c1)c1cc(-c2ccccn2)nc2ccccc12 |  | inactive: -11.6%
O=C(Nc1cccc2ccccc12)OC1C=CS(=O)(=O)C1 (stereo not drawn) |  | inactive: 2.11%
COC(=O)Cc1c(C)c2ccc(OCC(=O)N(C)C)cc2oc1=O | inconclusive: 25.9 µM [activator, single point] | 
O=C(Nc1ccc(Cl)cc1F)c1ccccc1Br | inconclusive: 9.2 µM [activator, partial curve] | 

Compound | Potency | activity change, negative = inhibition
O=[N+]([O-])c1ccc(C(=S)N2CCN(c3ccc(F)cc3)CC2)cc1 |  | inactive: -6.4%
COc1ccc(S(=O)(=O)NCc2ccco2)cc1-c1nnc2c3ccccc3c(C)nn12 | inconclusive: 4.61 µM [inhibitor, single point] | 
CC(NC(=O)c1cc2c(s1)CCCC2)C(C)(C)C (stereo not drawn) | inconclusive: 13 µM [activator, partial curve] | 
Cc1ccc(C(=O)COC(=O)CNC(=O)c2ccc(N3C(=O)c4ccccc4C3=O)cc2)cc1C | inconclusive: 32.6 µM [activator, partial curve, poor fit] | 
Cc1cc(C)nc(Nc2n[nH]c(Cc3ccccc3)n2)n1 | inconclusive: 29.1 µM [activator, single point] | 
Cc1cc(NC(=O)c2ccco2)no1 | inconclusive: 20.6 µM [activator, single point] | 
O=C(OC1CCOC1=O)c1ccccc1C(=O)c1ccc(Cl)c([N+](=O)[O-])c1 (stereo not drawn) |  | inactive: 2.71%
COc1ccc(C(=O)NCCCSC)cc1OC1CCN(C(C)C)CC1 |  | inactive: 5%
CSc1ccc(/C=C2\C(=N)N3N=C(CC(=O)N4CCOCC4)SC3=NC2=O)cc1 |  | inactive: 9.37%
CCOC(=O)Nc1cc(OC)c(OC)cc1Cc1nccc2cc(OC)c(OC)cc12 | inconclusive: 9.2 µM [inhibitor, single point] | 
CC1Sc2ccc(S(=O)(=O)N3CCC(C(=O)N(C)Cc4ccccc4)CC3)cc2NC1=O (stereo not drawn) | active: 7.3 µM | 
Cn1c(SCc2c(F)cccc2Cl)nnc1-c1cnccn1 | inconclusive: 7.31 µM [activator, partial curve] | 
CCCOC(=O)CSc1nnc(-c2ccccc2Cl)o1 | inconclusive: 29.1 µM [activator, single point] | 
NC(=O)NC(=O)C(c1ccccc1)N1CCN(S(=O)(=O)Cc2ccccc2)CC1 (stereo not drawn) |  | inactive: 11.7%
CCCCN(C(=O)c1cnccn1)c1c(N)n(CCC)c(=O)[nH]c1=O |  | inactive: 0%
CCOC(=O)/C(C#N)=C/Nc1cc(OC)ccc1OC | inconclusive: 25.9 µM [inhibitor, single point] | 
Cc1cccc(NC(=O)c2ccc(N3CCOCC3)c([N+](=O)[O-])c2)n1 | inconclusive: 18.3 µM [activator, partial curve] | 
CC(O/N=C/c1ccc(OC(F)F)cc1)C(=O)Nc1cccc(S(=O)(=O)N2CCOCC2)c1 (stereo not drawn) | inconclusive: 29.1 µM [inhibitor, single point] | 
CCOC(=O)c1sc2nc(SCC(=O)N(CC)CC)n(CCCN3CCCC3=O)c(=O)c2c1C | inconclusive: 29.1 µM [inhibitor, single point] | 
COCCCNC(=O)C1CCN(C(=O)c2oc3cc4sc(N(C)C)nc4cc3c2C)CC1 | inconclusive: 20.6 µM [activator, single point] | 
COC(=O)CN(c1ccccc1OC)S(=O)(=O)c1ccccc1 |  | inactive: -2.15%
O=C(CN1C(=O)C2CCCCC2C1=O)OCn1nnc2ccccc2c1=O (stereo not drawn) | inconclusive: 29.1 µM [activator, single point] | 

3 entries from above, sorted by molar mass, descending.
Compound | Potency | activity change, negative = inhibition
CCOC(=O)c1sc2nc(SCC(=O)N(CC)CC)n(CCCN3CCCC3=O)c(=O)c2c1C | inconclusive: 29.1 µM [inhibitor, single point] | 
CC(O/N=C/c1ccc(OC(F)F)cc1)C(=O)Nc1cccc(S(=O)(=O)N2CCOCC2)c1 (stereo not drawn) | inconclusive: 29.1 µM [inhibitor, single point] | 
CC(NC(=O)c1cc2c(s1)CCCC2)C(C)(C)C (stereo not drawn) | inconclusive: 13 µM [activator, partial curve] | 
